Earlier results, collected in patent US8877757B2, “Pyrazine derivatives and use as PI3K inhibitors” (Merck Serono SA, priority 2005, dated 2014).
At least one structure is not confirmed: it was looked up by name or label, or the drawing left a doubt.

Tests used:
Class I PI3-kinases = settings: Fruman et al., 1998; read-out: IC50 against each of the Class I PI3-kinases; cited from earlier work
CK2 protein kinase = settings: Fruman et al., 1998; cited from earlier work

With `O=c1cc(N2CCOCC2)oc2c(-c3ccccc3)cccc12` [LY294002] as the compound, how does the IC50 (Class I PI3-kinases) read?
Its IC50 is 0.015 to 0.02 mM.

And the IC50 (CK2 protein kinase)?
The IC50 was 5 to 10 mM.
